# According to PubChem BioAssay AID662 (National Center for Advancing Translational Sciences (NCATS), 2007):
# Values joined by “and” are separate entries in the source; they are usually repeats but may differ in a detail not shown here. Equal entries are not always repeated. The list shows a part of the results. These are further read-outs of the screen, such as a control signal, another cell line or another target. No call is given for them. The list favours compounds with an active or inconclusive main result. Potencies come from curve fits of mixed quality, noted in brackets.
# Assay: Cell signaling CRE-BLA (Fsk stim)
# Conditions: CHO CRE-bla reporter (cAMP response element driving beta-lactamase), forskolin EC10, beta-lactamase ratio; measured here: 460 nm blue channel
# Method in brief: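 The 460nm/530nm emission ratio after CCF4 loading defined %Activity, from which AC50 values were obtained. CRE-bla CHO cells received compound dilution series together with an EC10 level of NKH 477 for 3 hours at 37 degrees Celsius.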
row,Compound,AC50
1,COc1ccccc1S(=O)(=O)n1cc(Cc2ccccc2)c(N)n1,"0.631 µM [rising, single point]"
2,CCCC1=C(C(=O)OCC)C(c2cc(Cl)cc(OC)c2OCC(=O)OCC)NC(=O)N1 (stereo not drawn),"10 µM [rising, single point]"
3,Cc1cc(C2=CC(C)(c3cc(C)oc3C)Nc3nc(C(F)(F)F)nn32)c(C)o1 (stereo not drawn),"20 µM [falling, single point]"
4,c1ccc(-c2nc(-n3ccnc3)nc(-n3ccnc3)n2)cc1,"1.58 µM [rising, partial curve]"
5,O=C(Nc1cccc(F)c1)N1CC2(CCN(C(=O)c3cnccn3)CC2)C1,"10 µM [falling, single point]"
6,CCOC(=O)Cn1c(=NC(=O)CSC(C)=O)sc2cc(OC)ccc21,"0.501 µM [falling, full curve]"
7,Cc1cc(-c2ccccc2)nc2[n+]1CCN2C,"5.01 µM [falling, single point]"
8,OC1(c2cccc(C(F)(F)F)c2)CCN(c2ncnc3c2[nH]c2ccc(F)cc23)CC1,"25.1 µM [falling, single point]"
9,CC1(C)CC(=O)C(C=Nc2ccc(O)cc2)=C(O)C1,"0.2 µM [falling, full curve]"
10,Cc1cccc(-c2nnc(SCc3nc4ccccc4[nH]3)n2Cc2ccco2)c1,"10 µM [rising, partial curve]"
11,C=CCn1c(NC(=O)c2ccccc2Cl)c(C#N)c2nc3ccccc3nc21,"5.01 µM [rising, partial curve]"
12,Oc1c(C(c2cccs2)N2CCN(c3cccc(Cl)c3)CC2)sc2ncnn12 (stereo not drawn),"12.6 µM [rising, partial curve]"
13,Cc1cc(NC(=O)CSc2nc(-c3cccs3)cc(C(F)(F)F)n2)no1,"3.16 µM [rising, full curve]"
14,CCC(C)(C(=O)NC1CCCC1)N(Cc1ccco1)C(=O)c1ccccn1 (stereo not drawn),"12.6 µM [falling, partial curve, poor fit]"
15,Oc1ccc(/C=C\c2cc(O)cc(O)c2)cc1,"15.8 µM [falling, partial curve, poor fit] and 15.8 µM [falling, partial curve]"
16,CCOc1ccccc1-c1nc(-c2cc3ccccc3nc2OC)no1,"10 µM [rising, partial curve]"
17,COc1ccccc1CNc1ncnc2ccc(-c3cccc(NS(C)(=O)=O)c3)cc12,"10 µM [rising, partial curve]"
18,COc1cccc(-c2nc(NCCNC(C)=O)c3ccccc3n2)c1,"15.8 µM [rising, partial curve]"
19,CCOC(=O)c1cc2c(=O)n3ccccc3nc2n(CCOC)c1=NC(=O)C(C)(C)C,"10 µM [rising, partial curve]"
20,CCOC(=O)c1sc(NC(=O)CCSC)nc1C,"12.6 µM [rising, partial curve]"
21,CCOC(=O)c1c(CC(C)C)csc1NC(C)=O,"15.8 µM [rising, single point]"
22,Cc1nn(Cc2ccc(C(=O)Nc3ccc(C(=O)OC(C)C)cc3)o2)c(C)c1Cl,"2.51 µM [rising, full curve]"

# 12 entries already listed, ordered by SMILES length, largest number first:
row,Compound,AC50
8,OC1(c2cccc(C(F)(F)F)c2)CCN(c2ncnc3c2[nH]c2ccc(F)cc23)CC1,"25.1 µM [falling, single point]"
19,CCOC(=O)c1cc2c(=O)n3ccccc3nc2n(CCOC)c1=NC(=O)C(C)(C)C,"10 µM [rising, partial curve]"
22,Cc1nn(Cc2ccc(C(=O)Nc3ccc(C(=O)OC(C)C)cc3)o2)c(C)c1Cl,"2.51 µM [rising, full curve]"
10,Cc1cccc(-c2nnc(SCc3nc4ccccc4[nH]3)n2Cc2ccco2)c1,"10 µM [rising, partial curve]"
13,Cc1cc(NC(=O)CSc2nc(-c3cccs3)cc(C(F)(F)F)n2)no1,"3.16 µM [rising, full curve]"
14,CCC(C)(C(=O)NC1CCCC1)N(Cc1ccco1)C(=O)c1ccccn1 (stereo not drawn),"12.6 µM [falling, partial curve, poor fit]"
1,COc1ccccc1S(=O)(=O)n1cc(Cc2ccccc2)c(N)n1,"0.631 µM [rising, single point]"
4,c1ccc(-c2nc(-n3ccnc3)nc(-n3ccnc3)n2)cc1,"1.58 µM [rising, partial curve]"
16,CCOc1ccccc1-c1nc(-c2cc3ccccc3nc2OC)no1,"10 µM [rising, partial curve]"
9,CC1(C)CC(=O)C(C=Nc2ccc(O)cc2)=C(O)C1,"0.2 µM [falling, full curve]"
15,Oc1ccc(/C=C\c2cc(O)cc(O)c2)cc1,"15.8 µM [falling, partial curve, poor fit] and 15.8 µM [falling, partial curve]"
7,Cc1cc(-c2ccccc2)nc2[n+]1CCN2C,"5.01 µM [falling, single point]"

# Next records

row,Compound,AC50
1,N#Cc1cc(Sc2ccccn2)c(Sc2ccccn2)cc1C#N,"0.794 µM [rising, single point]"
2,c1cncc(-c2cc(-n3ccnc3)ncn2)c1,"12.6 µM [rising, single point]"
3,CCOCCc1nnc(NC(=O)c2cccs2)s1,"0.0126 µM [rising, single point]"
4,Cc1cc(C(=O)CSc2nc3ccccc3c(=O)[nH]2)c(C)n1C,"10 µM [rising, partial curve]"
5,COC(=O)c1cccc(NC(=O)c2nn(C(C)C)c(=O)c3ccccc23)c1,"2.51 µM [rising, full curve]"
6,CC(C)c1cc(C(F)(F)F)n2nc(C(=O)Nc3ccc4c(c3)OCO4)cc2n1,"20 µM [rising, single point]"
7,Cc1nc2sc(C(=O)O)c(N)c2c2c1COC(C)(C)C2,"20 µM [rising, single point]"
8,CCOC(=O)N1CCC(NC(=O)Cn2ncc3ccccc32)CC1,"0.00316 µM [falling, full curve, poor fit]"
9,Cn1c(=O)c2c(nc(CN3CCN(c4ccccc4F)CC3)n2CCN2CCOCC2)n(C)c1=O,"0.0398 µM [falling, full curve, poor fit]"
10,Cc1ccc(-c2nn(C)c(=O)c3ccccc23)cc1S(=O)(=O)NCCN1CCOCC1,"3.16 µM [rising, partial curve]"
11,COC(=O)c1ccc(CNC(=O)COc2ccccc2Br)o1,"0.631 µM [rising, full curve, poor fit]"
12,CCOC(=O)c1ccccc1NC(=O)c1ccccc1NS(C)(=O)=O,"10 µM [rising, single point]"
13,Cc1ccc(Cl)cc1N1CCN(C(=O)c2ccc(NS(=O)(=O)c3c(C)noc3C)cc2)CC1,"2.51 µM [rising, full curve]"
14,COc1cccc(Cn2c(=O)c(-c3ccc(Cl)cc3)nc3cnc(N4CCN(C)CC4)nc32)c1,"3.98 µM [rising, full curve]"
15,CCCCCCCCCCCCCCCC(=O)O[C@H](CC(=O)O)C[N+](C)(C)C,"20 µM [falling, partial curve, poor fit]"
16,COc1cccc(Nc2ncc3nc(-c4cccs4)c(=O)n(Cc4cccs4)c3n2)c1,"2.51 µM [rising, full curve]"
17,CCC(Sc1nncn1C)C(=O)Nc1nnc(-c2ccccc2Cl)s1 (stereo not drawn),"12.6 µM [rising, partial curve]"
18,COc1cccc(C(=O)Nc2ncc3c(n2)CC(c2ccc(OC)cc2OC)CC3=O)c1 (stereo not drawn),"10 µM [rising, partial curve]"
19,Cn1ccc(C(=O)OCC(=O)c2ccccc2)n1,"0.00316 µM [falling, full curve, poor fit]"
20,COC(=O)c1nc(NC(=O)C(C)(C)C)n[nH]1,"12.6 µM [falling, partial curve]"
21,COc1cccc(-n2nnnc2SCC(=O)Nc2cccc(NC(C)=O)c2)c1,"0.00794 µM [falling, full curve, poor fit]"
